Results of single-concentration screens

Mtb glucose medium: 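Phenotypic screen: M. tuberculosis growth, glucose 7H9 medium, 3 days; the read-out is not stated. Concentration: 50 µM. Direction is inferred from retests: higher values go with more growth inhibition. About 69,000 compounds were tested under these conditions; 1.1% (about 760) showed 50% or more at least once.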
Mtb cholesterol medium: 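Whole-cell growth test on Mycobacterium tuberculosis, read after 4 days in a medium based on cholesterol and the lipid DPPC; the read-out is not stated. Concentration: 50 µM. Direction is inferred from retests: higher values go with more growth inhibition. About 69,000 compounds were tested under these conditions; 0.54% (about 370) showed 50% or more at least once.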

Values are the deposited “Percent Effect”, in %. How 0% and 100% were set is not recorded. Most values in the screen are low, and negative values occur. This is an unselected part of the compounds tested. Two or more numbers in one place are separate tests of the same structure; such repeats can differ widely.

| # | Compound | Mtb glucose medium | Mtb cholesterol medium |
|---|---|---|---|
| 1 | `O=C(Cn1c(=O)n(Cc2ccco2)c2ncccc21)NC1CCCCC1` | -36.92 | 8.665 |
| 2 | `CCc1nc(C2CCCN(C(=O)c3cc(C(C)C)[nH]n3)C2)no1` (stereo unspecified) | 0.4334 | 2.549 |
| 3 | `Cc1nn(C)c2cn(C(C)C(=O)NCc3cccnc3)nc12` (stereo unspecified) | 14.45 | -1.54 |
| 4 | `CN(C)C(=O)CCCS(=O)(=O)Cc1cc(Cl)c2c(c1)OCCO2` | 17.76 | 22.69 and 21.03 |
| 5 | `Cc1cccc(N2CCC(N3CCC4(CCCNC4=O)C3)CC2)c1C` (stereo unspecified) | -34.98 | -32.03 |
| 6 | `Cc1cccc2sc(NC(=O)CN3CCC(C)CC3)nc12` | 24.34 | 13.17 |
| 7 | `N[C@@H]1c2ccccc2C2(CCN(c3cccc(C(F)(F)F)n3)CC2)[C@H]1O` | 28.54 | 22.5 |
| 8 | `CC(C)CN1C(=O)C2(CCCC2)NC1c1c[nH]nc1-c1cccnc1` (stereo unspecified) | -4.324 and -16.32 | -16.49 |
| 9 | `O=C(c1ccoc1)N1CCCN(C(=O)c2ccc(C3CCCN3)s2)CC1` (stereo unspecified) | -4.524 | -0.961 and -5.146 |
| 10 | `CCOCC(=O)N1CCC(C(O)c2ccc(F)cc2)CC1` (stereo unspecified) | -27.77 | -16.25 |
| 11 | `Cc1cc(N2CCCN(Cc3ccc(C)o3)CC2)ccn1` | -27.83 | -13.14 |
| 12 | `c1ncc2c(n1)CN(Cc1cn3ccsc3n1)CC2` | -28.25 and 1.941 | 0.9201 |
| 13 | `Cc1ncccc1OC1(C(=O)NCCc2ccccn2)CCNCC1` | 6.608 and -36.76 | 31.61 |
| 14 | `CCS(=O)(=O)CC(=O)Nc1ccc2oc(C3CC3)nc2c1` | 13.03 | -6.619 |
| 15 | `[H][C@@]12CS(=O)(=O)C[C@]1([H])N(Cc1cc(Cl)cc(Cl)c1)CCN2CCC` | 0.601 | 4.358 |
| 16 | `O=C(NC(CO)CO)c1coc(COc2cccc(F)c2)n1` | 15.68 | -6.849 |
| 17 | `Clc1ccc(OCCCN2CCN(c3cnccn3)CC2)cc1` | 21.01 | 13.95 |
| 18 | `Cn1cccc1CNCC1CCCn2cc(C(C)(C)C)nc21` (stereo unspecified) | 8.063 and -7.786 | 31.93 |
| 19 | `CCC(C(=O)Nc1ccc2cn(CC)nc2c1)N1CCCC1=O` (stereo unspecified) | -11.48 | -13.29 |
| 20 | `CCS(=O)(=O)NCC(=O)NC1(C)CCc2ccccc2C1` (stereo unspecified) | -0.6577 | -9.428 |
| 21 | `CNC(=O)C1CN(Cc2cc(C)on2)CCN(C2CCOCC2)C1` (stereo unspecified) | 0.7214 | 34.37 |
| 22 | `Cl.[H][C@@]12CCCCN[C@]1([H])[C@@H](c1ccccc1)CCN2S(=O)(=O)N(CC)CC` | 15.14 | 8.638 |
| 23 | `Cc1cnn(C2CN(CCOc3ccc(C#N)cc3)C2)c1` | -17.92 | -4.535 |
| 24 | `CCOCc1ccc(NC(=O)C(C)C)cc1` | 12.39 | -28.03 |
| 25 | `CC(NCc1cnn(C)c1)c1noc(-c2ccc(Cl)cc2)n1` (stereo unspecified) | 4.629 and 4.063 | 2.357 |
| 26 | `CCc1nc(C2CCCN2C(=O)CCc2cscn2)no1` (stereo unspecified) | -0.5869 | -16.6 |
| 27 | `Cc1noc(C)c1CS(=O)(=O)CC(=O)N1c2ccccc2CC1C` (stereo unspecified) | 3.796 | 12.78 |
| 28 | `CCN(Cc1ccoc1)C(C(N)=O)c1ccc(Br)cc1` (stereo unspecified) | 36.51 | 6.408 |
| 29 | `CCC(=O)N(C)CC(=O)Nc1ccc(Br)cn1` | -9.106 | -13.91 |
| 30 | `Cn1nc(C(=O)N2CCOCC2)cc1C(=O)Nc1c(Cl)cccc1Cl` | 16.12 | 10.55 |
| 31 | `CNC(=O)c1cc(C2CCCN2)n[nH]1.Cl` (stereo unspecified) | 3.01 | 8.345 |
| 32 | `CCc1ncnc2c1CCN(S(=O)(=O)c1ccccc1)CC2` | 5.711 | -26.21 |
| 33 | `O=C(O)C(F)(F)F.O=C(O)C(F)(F)F.[H][C@@]12CCCO[C@]1([H])[C@H](Oc1ccccn1)CN2Cc1nccs1` | 0.761 and -11.42 | 0.6964 |
| 34 | `OC(COc1ccccc1)CN1CCC(c2ccn[nH]2)CC1` (stereo unspecified) | -3.147 | -2.333 |
| 35 | `Cc1cnn(C2CCCN(C(=O)c3ccc(N4CCCC4)nc3)C2)c1` (stereo unspecified) | 44.05 | 6.026 |
| 36 | `COc1ccc2c(c1)OCC(Cc1cnccc1N)C2` (stereo unspecified) | 7.103 | -25.33 |
| 37 | `COc1ccc(C)cc1CCNS(C)(=O)=O` | 17.67 | -3.077 |
| 38 | `CC(=O)N1CCN(C(=O)CN2CCCC2c2c(C)nn(C)c2C)CC1` (stereo unspecified) | 26.12 | 4.331 |
| 39 | `O=S1(=O)CCC(c2nnc(-c3cnc4onc(C5CCCC5)c4c3)o2)C1` (stereo unspecified) | -8.439 and 8.339 | -0.8637 |
| 40 | `CC(=O)NCC(=O)N1CCC(c2cncc(Oc3cccnc3)n2)CC1` | -13.79 | -16.75 |
| 41 | `O=C(CCc1ccco1)N1CCC(Oc2ccccc2)(C(=O)O)CC1` | -16.73 | 0.8269 |
| 42 | `CN(C)c1ccnc(C2CCCN2)n1.Cl` (stereo unspecified) | 13.7 | 12.19 and -4.173 |
| 43 | `O=C(NCCOC1CCCC1)c1ccc(-c2ccco2)[nH]c1=O` | -18.72 | -18.3 |
| 44 | `[H][C@]12CC[C@@]3(N=C(C)N(CC)C3=O)[C@@]1([H])CN(C(=O)NCC(C)C)C2` | -6.39 and 20.18 | 2.862 |
| 45 | `CN1CC(=O)N(C2CCC2)Cc2c(NC3CCNCC3)ncnc21` | 3.929 | 1.351 |
| 46 | `Cc1nc(-c2ccsc2)ccc1C(=O)NCCCN1CCOCC1` | -16.34 | -11.85 |
| 47 | `COc1cccc2c3c(c(=O)[nH]c12)CCO3` | -10.76 and -16.24 | -20.04 |
| 48 | `N#Cc1ccccc1N1CCN(C(=O)NCC(=O)N2CCCC2)CC1` | -7.925 | -6.274 |
| 49 | `CNC(=O)NC(=O)CN1CCN(c2ccc(C(=O)OC)cc2)CC1C` (stereo unspecified) | -5.415 | -4.141 |
| 50 | `CCOC(=O)c1ccc(NC(=O)Cn2cc(I)cn2)cc1` | 34.19 | 14.37 |
| 51 | `Cc1nc(CN2CCC23CCN(C(=O)c2ccco2)CC3)cs1` | -0.8044 | 0.1767 |
| 52 | `Cc1nc(Nc2nccs2)cc(C2CCCN2)n1.Cl` (stereo unspecified) | 12.31 | 32.02 and 20.54 |
| 53 | `Cc1csc(C(C)(C)NCc2ncc(-c3ccccc3)o2)n1` | 7.785 | 9.644 and 0.9434 |
| 54 | `Cc1nnc2n1CCN(C(=O)c1cc(C)n(-c3ccccc3)c1C)C2` | 17.36 | 5.5 |
| 55 | `CCCc1cc(N2CCC(NC3CCOCC3)CC2)nc(C)n1` | -20.13 and -6.628 | -23.38 |
| 56 | `CSC(C)(C)CNC(=O)Nc1cccc(-c2nccn2C)c1` | -15.17 | -19.11 |
| 57 | `CC(=O)N1CCN(Cc2nccs2)CC2(CC(=O)N(C)C2)C1.O=C(O)C(F)(F)F` (stereo unspecified) | -10.34 | -15.13 and -2.19 |
| 58 | `O=C(C1CC1)N1CCC(c2nc(-c3ccccc3)n[nH]2)CC1` | -2.148 and -6.111 | -21.75 |
| 59 | `CN(C(=O)CCNC(=O)NC1CCCCC1)c1ccccc1` | -30.54 and -11.71 | -5.336 |
| 60 | `COC(C)(C)CNC(=O)N1CCC(n2ccc(C(F)(F)F)n2)CC1` | 25.19 | 6.657 |
| 61 | `Cc1nc(NCC(O)CN2CCCCCC2)c2c(C)noc2n1` (stereo unspecified) | 15.83 | -28.57 |
| 62 | `Cc1cc(C)cc(NS(=O)(=O)c2cc3c(c(C(=O)O)c2)OCCO3)c1` | 20.21 | 8.456 |
| 63 | `COc1ccc(C(=O)N2CCC(Nc3cccnn3)CC2)c(OC)c1` | -27.88 | 2.515 |
| 64 | `[H][C@@]12C[C@H](C(=O)NC(C)C)[C@@]([H])(CN(C(=O)NCCc3ccccc3)C1)O2` | -32.43 | -7.914 |
| 65 | `COc1ccc(-c2n[nH]cc2C2SCC(=O)Nc3[nH]ncc32)cc1` (stereo unspecified) | 20.19 and 5.831 | 7.898 |
| 66 | `[H][C@]12CC[C@@]([H])(C1)N(C(=O)COc1cccc(NC(=O)CC)c1)C2` | 11.57 | -9.666 |
| 67 | `COCC(=O)N1CCc2ccccc2C12CCNCC2.Cl` | -51.57 | -25.77 |
| 68 | `Cc1cc(NC(=O)NCCO)nn1-c1ccc(Cl)cc1Cl` | 44 | -5.805 |
| 69 | `CC(=O)NCCC(Cc1ccccc1)c1ccco1` (stereo unspecified) | -6.993 and 3.554 | -15.95 |
| 70 | `CN(Cc1cc(-c2ccccc2)no1)Cc1nccn1C` | -11.13 and 8.754 | -13.65 |
| 71 | `CC1(C)CCC(C(=O)O)c2ccccc21` (stereo unspecified) | 1.89 | -14.57 |
| 72 | `CC(Cc1ccccc1F)C(=O)Nc1cccc(OCC(N)=O)c1` (stereo unspecified) | 3.77 | -12.67 |
| 73 | `COCCCNC(=O)c1cc(C(C)C)nc(N2CCCCCC2)n1` | -16.81 | -13.93 |
| 74 | `Cn1cc(CN2CCCN(C(=O)c3cc(Cl)cn3C)CC2)cn1` | -34.59 | -10.86 |
| 75 | `CCOC(=O)c1cnn(C2CCN(C(=O)CC3CCCC3)CC2)c1N` | 15.68 | -4.021 |
| 76 | `Cc1ccc(OCCC(=O)NCCCN2CCCC2=O)c(C)c1` | 14.34 and 10.8 | -3.918 |
| 77 | `Cc1cc(C)n(CC2CCCN2C(=O)c2ccc(C(N)=O)cn2)n1` (stereo unspecified) | -14.69 | -15.14 |
| 78 | `CCN(Cc1nc2c(cnn2C)c(=O)[nH]1)Cc1cccs1` | 5.401 | 4.83 |
| 79 | `Cc1ncc(-c2ccnc(NC3CC3)n2)c(-c2cccnc2)n1` | -44.37 | -33.17 |

From ChEMBL document CHEMBL3988442, “University of Dundee, Small-Polar-MMV Screening Library” (2021).